Values from PubChem BioAssay AID743121 (NCATS, 2013)
Aim: 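Genes whose silencing strengthens cell killing by camptothecin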 (primary screen). System: MDA-MB-231 cells, a human breast cancer line. Knock-down reagent: single siRNA against human genes, 20 nM siRNA (0.8 pmol per well). Timing: 120 h (drug added 48 h after transfection, read 72 h later). Conditions: camptothecin 20 nM (about EC30) for 72 h; vehicle 0.1% DMSO in parallel plates. Measurement: 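CellTiter-Glo ATP signal, scaled to control siRNA as percent viability; sensitisation given as log2 of untreated divided by camptothecin-treated viability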. Scale: log2 vehicle/camptothecin viability: higher = stronger sensitisation to camptothecin; viability with camptothecin and viability without drug: higher = more viable cells. Active means: 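Each gene scored by redundant siRNA activity (RSA) over its individual siRNA ratios; a gene is called active at p < 0.001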.
Here is an unselected part of about 26,000 deposited reagents. 167 of all reagents (0.63%) were called active. 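Calls are per gene from RSA p-values that are not deposited; an individual active-marked siRNA can sensitise only weakly.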 A number with no mark means an inactive call. The numbers tell different reagents against one gene apart.

gene knocked down	reagent no.	log2 vehicle/camptothecin viability	viability with camptothecin (% of control)	viability without drug (% of control)
METAP2	1	-0.152	98.1	88.3
METAP2	2	-0.0805	54.4	51.4
METAP2	3	-0.254	105	88.5
METAP2	4	-0.614	99.8	65.2
PPP2R2C	1	-0.275	79	65.2
PPP2R2C	2	-0.0718	94.6	90
PPP2R2C	3	-0.0499	101	97.3
PPP2R2C	4	-0.309	118	95.5
CCNB2	1	-0.11	72.9	67.5
CCNB2	2	-0.0873	87.6	82.4
CCNB2	3	-0.0729	108	103
CCNB2	4	-0.46	90.5	65.8
IGFALS	1	-0.145	48.8	44.2
IGFALS	2	-0.0181	90	88.8
IGFALS	3	0.789	18.2	31.4
CKB	1	0.0522	40.8	42.3
CKB	2	0.523	13	18.7
CKB	3	-0.146	81.4	73.5
CKB	4	-0.325	73	58.3
RPS6KC1	1	0.0017	85.5	85.6
RPS6KC1	2	-0.11	98.1	91
RPS6KC1	3	0.231	50.5	59.3
RPS6KC1	4	0.0471	71.1	73.5
CXCR3	1	0.268	74.2	89.4
CXCR3	2	0.164	34.8	38.9
CXCR3	3	0.265	37.4	44.9
CXCR3	4	-0.0959	94.1	88
CCT5	1	-0.534	103	71.2
CCT5	2	-0.345	64.8	51
CCT5	3	-0.0414	69.9	67.9
CCT5	4	-0.269	61.6	51.1
PRKDC	1	-0.00688	92.4	92
PRKDC	2	-0.446	70.6	51.8
PRKDC	3	-0.106	94	87.3
PRKDC	4	-0.0161	63.3	62.5
RNPEP	1	0.624	39.9	61.5
RNPEP	2	-0.329	83.9	66.8
RNPEP	3	-0.0323	93.4	91.3

An excerpt from above, showing only “log2 vehicle/camptothecin viability”:
CXCR3 #2: 0.164
CXCR3 #3: 0.265
CXCR3 #4: -0.0959
CCT5 #1: -0.534
CCT5 #2: -0.345
CCT5 #3: -0.0414
CCT5 #4: -0.269
PRKDC #1: -0.00688
PRKDC #2: -0.446
PRKDC #3: -0.106

The list goes on.
gene knocked down	reagent no.	log2 vehicle/camptothecin viability	viability with camptothecin (% of control)	viability without drug (% of control)
GNA14	1	-0.0507	105	101
GNA14	2	-0.432	47.7	35.4
GNA14	3	0.022	79.3	80.5
GNA14	4	-0.0213	66.3	65.3
CPXM1	1	-0.433	39.1	28.9
CPXM1	2	-0.455	83.3	60.8
CPXM1	3	-0.0438	51	49.4
CPXM1	4	0.186	33.2	37.7
COLQ	1	-0.344	21.1	16.6
COLQ	2	0.0254	58.7	59.7
COLQ	3	-0.628	96.6	62.5
COLQ	4	-0.0579	92.1	88.4
CRX	1	1.45 (active)	6.45	17.6
CRX	2	-0.122 (active)	57.2	52.6
CRX	3	0.963 (active)	1.88	3.65
CRX	4	0.917 (active)	44.1	83.3
CDH1	1	0.1	62.8	67.3
CDH1	2	-0.216	62.3	53.6
CDH1	3	-0.0126	95.1	94.3
CDH1	4	-0.27	104	86.2
CACNG3	1	-0.0933	62.7	58.8
CACNG3	2	0.0599	77.8	81.1
CACNG3	3	0.625	38.4	59.3
CACNG3	4	-0.43	89.2	66.2
EIF3F	1	-0.27	64.2	53.3
EIF3F	2	-0.351	61.4	48.2
EIF3F	3	-0.459	75.9	55.2
PXK	1	-0.314	121	97
PXK	2	-0.328	81.9	65.3
PXK	3	-0.416	66.9	50.1
PXK	4	-0.196	120	105
